Experimental data taken from US12638438B2, “Screening methods using canine T2R receptors and pet food products and compositions identified using the same” (MARS, INCORPORATED, priority 2015, dated 2026).

Protein sequences, listed by entry. Tags and fused reporters are not part of them. Residues count along the entry.
UniProt A0A8I3SCV7, 1-299: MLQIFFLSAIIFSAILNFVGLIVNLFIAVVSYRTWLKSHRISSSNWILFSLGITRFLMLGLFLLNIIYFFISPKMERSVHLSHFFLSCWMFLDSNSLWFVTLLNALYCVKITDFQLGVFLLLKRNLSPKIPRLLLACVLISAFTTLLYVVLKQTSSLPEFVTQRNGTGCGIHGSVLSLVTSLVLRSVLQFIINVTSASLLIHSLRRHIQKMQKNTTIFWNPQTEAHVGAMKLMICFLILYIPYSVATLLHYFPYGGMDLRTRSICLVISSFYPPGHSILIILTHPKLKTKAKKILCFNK

Molecular target: canine T2R4 (Canis lupus, UniProt A0A8I3SCV7)
Assay: cell-based

In the case of COc1cc2c(c(OC)c1OC)-c1ccc(OC)c(=O)cc1[C@@H](NC(C)=O)CC2 [Colchicine], the EC50 is reported as 2580 ± 167 µM.
